Reference: patent US20170327576A1
Results are given in words; binding and its absence hold for the method and conditions named. Some entries that bind do so weakly or less than the wild type.

Experiments:
[1] = biological target: T1, non-functional P2X7 receptor on live cancer cells or tumour tissue (human) (UniProt Q99572); experiment: flow cytometry, live PC3 cells
T1 sequence (chain, cis isomerisation at Pro210 in one or more monomers (the filing's definition)): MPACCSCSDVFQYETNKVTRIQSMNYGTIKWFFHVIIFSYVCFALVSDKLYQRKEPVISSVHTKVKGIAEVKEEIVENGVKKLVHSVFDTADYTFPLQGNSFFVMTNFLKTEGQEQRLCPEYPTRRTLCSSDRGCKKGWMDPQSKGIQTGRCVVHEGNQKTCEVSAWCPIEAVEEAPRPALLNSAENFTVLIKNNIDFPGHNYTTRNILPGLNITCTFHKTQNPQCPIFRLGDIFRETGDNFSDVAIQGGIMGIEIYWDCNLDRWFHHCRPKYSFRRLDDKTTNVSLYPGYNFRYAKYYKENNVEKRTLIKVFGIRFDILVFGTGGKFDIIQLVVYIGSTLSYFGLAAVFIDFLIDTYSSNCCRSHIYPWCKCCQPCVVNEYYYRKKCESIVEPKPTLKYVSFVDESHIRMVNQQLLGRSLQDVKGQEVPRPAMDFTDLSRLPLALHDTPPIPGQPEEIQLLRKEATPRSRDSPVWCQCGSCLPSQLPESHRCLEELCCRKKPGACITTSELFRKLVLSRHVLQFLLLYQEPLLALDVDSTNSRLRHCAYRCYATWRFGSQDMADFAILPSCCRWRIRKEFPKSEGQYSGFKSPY

[2] = biological target: T1, non-functional P2X7 receptor on live cancer cells or tumour tissue (human); experiment: immunohistochemistry, Myc-tagged dAb
[3] = biological target: T1, non-functional P2X7 receptor on live cancer cells or tumour tissue (human); experiment: immunohistochemistry, human melanoma tissue

Measured: binding

B1: PEP2-4 dAb (protein)
VH: EVQLLESGGGLVQPGGSLRLSCAASGFTFGMYNMSWVRQAPGKGLEWVSSINATGGRTYYADSVKGRFTISRDNSKNTLYLQMNSLRAEDTAVYYCAKFNGFSHRQYNFDYWGQGTLVTVSS
binds: all assays above
